Source: patent publication US20150071931A1
These are yes or no findings as the source states them, for the method shown. Some entries that bind do so weakly or less than the wild type. For some assays here: Sequences can lack the tags named with a protein.

Assays:
[1] = target: T1, bacterially expressed Nono-6×His fusion protein (pEXP5-CT-Nono-6×His in E. coli BL21 (DE3)) (human) (UniProt Q15233); experiment: Western blot (figure legend)
T1 sequence: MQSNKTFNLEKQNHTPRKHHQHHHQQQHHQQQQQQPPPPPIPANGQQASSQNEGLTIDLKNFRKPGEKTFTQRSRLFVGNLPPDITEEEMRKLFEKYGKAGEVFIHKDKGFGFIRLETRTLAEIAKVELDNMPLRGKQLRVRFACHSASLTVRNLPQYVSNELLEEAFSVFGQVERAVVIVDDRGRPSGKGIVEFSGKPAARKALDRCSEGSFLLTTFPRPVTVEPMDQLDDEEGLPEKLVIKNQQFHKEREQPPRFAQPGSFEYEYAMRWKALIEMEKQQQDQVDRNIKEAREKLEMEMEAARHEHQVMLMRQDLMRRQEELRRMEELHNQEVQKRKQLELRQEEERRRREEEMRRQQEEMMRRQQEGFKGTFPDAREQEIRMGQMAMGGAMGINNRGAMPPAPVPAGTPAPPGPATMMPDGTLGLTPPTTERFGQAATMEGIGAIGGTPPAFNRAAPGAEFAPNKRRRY

[2] = target: T2, recombinant Nono-6×His fusion protein expressed in HEK293 cells (pcDNA3.1-V5-His-Nono-6×His; clone HEK293-Nono-6×His-A9) (human) (UniProt Q15233); experiment: Western blot (figure legend)
T2 sequence: T1 sequence

[3] = target: T1, bacterially expressed Nono-6×His fusion protein (pEXP5-CT-Nono-6×His in E. coli BL21 (DE3)) (human); experiment: ELISA, nmt55 coated on the plate
[4] = target: T3, non-POU domain-containing octamer-binding protein (NONO), endogenous, of human tumor cell lines (cell surface / membrane extracts / lysates) (human) (UniProt Q15233); experiment: FACS on A549, BxPC-3 and MKN cells
T3 sequence: T1 sequence

[5] = target: T3, non-POU domain-containing octamer-binding protein (NONO), endogenous, of human tumor cell lines (cell surface / membrane extracts / lysates) (human); experiment: FACS on living human cancer cell lines
[6] = target: T1, bacterially expressed Nono-6×His fusion protein (pEXP5-CT-Nono-6×His in E. coli BL21 (DE3)) (human); experiment: Western blot of E. coli BL21 (DE3) expressed protein
[7] = target: T1, bacterially expressed Nono-6×His fusion protein (pEXP5-CT-Nono-6×His in E. coli BL21 (DE3)) (human); experiment: Western blot of E. coli BL21 lysates with LM-1
[8] = target: T1, bacterially expressed Nono-6×His fusion protein (pEXP5-CT-Nono-6×His in E. coli BL21 (DE3)) (human); experiment: ELISA, nmt55 coated on the plate, secondary antibody-HRP
[9] = target: T3, non-POU domain-containing octamer-binding protein (NONO), endogenous, of human tumor cell lines (cell surface / membrane extracts / lysates) (human); experiment: FACS on A549 cells stably transfected with NONO antisense
[10] = target: T1, bacterially expressed Nono-6×His fusion protein (pEXP5-CT-Nono-6×His in E. coli BL21 (DE3)) (human); experiment: Western blot of bacterially expressed protein (reference to Example 16)
[11] = target: T3, non-POU domain-containing octamer-binding protein (NONO), endogenous, of human tumor cell lines (cell surface / membrane extracts / lysates) (human); experiment: Western blot of lysates of siRNA transfected BxPc-3 cells (figure legend)
[12] = target: T3, non-POU domain-containing octamer-binding protein (NONO), endogenous, of human tumor cell lines (cell surface / membrane extracts / lysates) (human); experiment: anti-nmt55 immunoprecipitate of A549 cells; Western blot with LM-1
[13] = target: T3, non-POU domain-containing octamer-binding protein (NONO), endogenous, of human tumor cell lines (cell surface / membrane extracts / lysates) (human); experiment: FACS, 10,000 cells per cell line, antibody at 100 ug/ml, anti-human IgM FITC
[14] = target: T3, non-POU domain-containing octamer-binding protein (NONO), endogenous, of human tumor cell lines (cell surface / membrane extracts / lysates) (human); experiment: LM-1 blots of fractionated BxPC-3 membrane preparation with MALDI identification
[15] = target: T3, non-POU domain-containing octamer-binding protein (NONO), endogenous, of human tumor cell lines (cell surface / membrane extracts / lysates) (human); experiment: Western blot of whole cell lysate from transfected BxPc cells, stained with LM-1
[16] = target: T3, non-POU domain-containing octamer-binding protein (NONO), endogenous, of human tumor cell lines (cell surface / membrane extracts / lysates) (human); experiment: anti-nmt55 immunoprecipitate of BxPC-3 membrane preparation; Western blot with LM-1
[17] = target: T2, recombinant Nono-6×His fusion protein expressed in HEK293 cells (pcDNA3.1-V5-His-Nono-6×His; clone HEK293-Nono-6×His-A9) (human); experiment: Western blot of HEK293-Nono-6×His-A9 and HEK293 wt cell lysate, LM-1 and anti-human-IgM-HRP
[18] = target: T3, non-POU domain-containing octamer-binding protein (NONO), endogenous, of human tumor cell lines (cell surface / membrane extracts / lysates) (human); experiment: Western blot of lysates of BxPc-3 cells transfected with NONO/nmt55 siRNA, stained with LM-1 IgM
[19] = target: T3, non-POU domain-containing octamer-binding protein (NONO), endogenous, of human tumor cell lines (cell surface / membrane extracts / lysates) (human); experiment: 2D-PAGE and chromatography of BxPC-3 extracts, blotting with LM-1, MALDI peptide mass fingerprint
[20] = target: T2, recombinant Nono-6×His fusion protein expressed in HEK293 cells (pcDNA3.1-V5-His-Nono-6×His; clone HEK293-Nono-6×His-A9) (human); experiment: Western blot of HEK293-Nono-6xHis-A9 and HEK293wt lysates with LM-1 and anti-human-IgM-HRP
[21] = target: T3, non-POU domain-containing octamer-binding protein (NONO), endogenous, of human tumor cell lines (cell surface / membrane extracts / lysates) (human); experiment: anti-nmt55 immunoprecipitate of MKN membrane preparation; Western blot with LM-1 and anti human IgM HRP
[22] = target: T3, non-POU domain-containing octamer-binding protein (NONO), endogenous, of human tumor cell lines (cell surface / membrane extracts / lysates) (human); experiment: Western blot of HEK293-Nono-6xHis-A9 and HEK293wt lysates with LM-1 and anti-human-IgM-HRP; endogenous Nono of HEK293 cells
[23] = target: T3, non-POU domain-containing octamer-binding protein (NONO), endogenous, of human tumor cell lines (cell surface / membrane extracts / lysates) (human); experiment: FACS on A549 and BxPc-3 cells, anti-human IgG-FITC

Measured: binding

B1: LM-1 human monoclonal IgM antibody produced by hybridoma (trioma) cell line DSMZ Deposit No. DSM ACC 2623 (antibody, V domains shown)
VH: QVQLQESGPGLVKPSPTLSLTCAVSGGSISSGGYYWSWIRQHPGKGLEWIGYIYYSGSTYYNPSLKSRVTISVDTSKNQFSLKLSSVTAADTAVYYCARVDARYDYVWGSYRYDAFDIWGQGTMVTVSS
VL: QSVLTQPPSVSAAPGQKVTISCSGSSSNIGNNYVSWYQQLPGTAPKLLIYDNNKRPSGIPDRFSGSKSGTSATLGITGLQTGDEADYYCGTWDSSLSAGWVFGGGTKLTVLG
not listed: [23]
binds: all other assays above

B2: isotype switched LM1 IgG antibody (expressed from pVitro2-LM1-HC-LC in HEK293 cells) (antibody, V domains shown, not shown: a dimerising Fc or GST)
VH: B1 VH
VL: B1 VL
binds: [23]
